From article PMC1940015
Residue numbers refer to the chain shown, from its start. No constants are given. Whether binding was seen depends on the method and setting. In cells and extracts the contact can be indirect. Some results given as binding are weak or reduced against the parent protein; the word gives no strength.

Sequences of proteins named here, by UniProt entry; tags and fusion partners are left off.
UniProt Q66H76: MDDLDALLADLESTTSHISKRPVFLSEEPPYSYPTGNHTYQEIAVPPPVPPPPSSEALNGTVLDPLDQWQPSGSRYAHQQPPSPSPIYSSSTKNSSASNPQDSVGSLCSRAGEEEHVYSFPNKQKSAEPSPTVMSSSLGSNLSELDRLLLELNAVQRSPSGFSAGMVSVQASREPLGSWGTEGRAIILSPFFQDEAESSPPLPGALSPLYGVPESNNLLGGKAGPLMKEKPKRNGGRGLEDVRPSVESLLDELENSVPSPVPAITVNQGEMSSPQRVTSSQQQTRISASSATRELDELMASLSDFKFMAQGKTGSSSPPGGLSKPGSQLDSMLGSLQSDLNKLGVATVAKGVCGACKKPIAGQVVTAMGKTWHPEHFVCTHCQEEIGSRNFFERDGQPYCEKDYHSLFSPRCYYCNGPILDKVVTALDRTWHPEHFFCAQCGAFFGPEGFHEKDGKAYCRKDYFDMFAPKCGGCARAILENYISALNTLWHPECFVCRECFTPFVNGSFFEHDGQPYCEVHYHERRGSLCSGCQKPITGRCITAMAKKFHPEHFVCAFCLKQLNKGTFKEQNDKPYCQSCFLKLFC

How the values were obtained:
[1] = target: T1, wild-type human α4 integrin, full length (human) (UniProt P13612); assay: co-IP; 1% Triton X-100 lysates of biotin-labelled PC12 cells expressing the α4 constructs; immunoprecipitated overnight at 4°C with anti-human α4 extracellular domain antibody; beads washed with 0.5 M NaCl, 1% NP40 buffer; western blot with anti-paxillin antibody
T1 sequence (chain, biotin (cell surface molecules labelled with NHS-LC-Biotin)): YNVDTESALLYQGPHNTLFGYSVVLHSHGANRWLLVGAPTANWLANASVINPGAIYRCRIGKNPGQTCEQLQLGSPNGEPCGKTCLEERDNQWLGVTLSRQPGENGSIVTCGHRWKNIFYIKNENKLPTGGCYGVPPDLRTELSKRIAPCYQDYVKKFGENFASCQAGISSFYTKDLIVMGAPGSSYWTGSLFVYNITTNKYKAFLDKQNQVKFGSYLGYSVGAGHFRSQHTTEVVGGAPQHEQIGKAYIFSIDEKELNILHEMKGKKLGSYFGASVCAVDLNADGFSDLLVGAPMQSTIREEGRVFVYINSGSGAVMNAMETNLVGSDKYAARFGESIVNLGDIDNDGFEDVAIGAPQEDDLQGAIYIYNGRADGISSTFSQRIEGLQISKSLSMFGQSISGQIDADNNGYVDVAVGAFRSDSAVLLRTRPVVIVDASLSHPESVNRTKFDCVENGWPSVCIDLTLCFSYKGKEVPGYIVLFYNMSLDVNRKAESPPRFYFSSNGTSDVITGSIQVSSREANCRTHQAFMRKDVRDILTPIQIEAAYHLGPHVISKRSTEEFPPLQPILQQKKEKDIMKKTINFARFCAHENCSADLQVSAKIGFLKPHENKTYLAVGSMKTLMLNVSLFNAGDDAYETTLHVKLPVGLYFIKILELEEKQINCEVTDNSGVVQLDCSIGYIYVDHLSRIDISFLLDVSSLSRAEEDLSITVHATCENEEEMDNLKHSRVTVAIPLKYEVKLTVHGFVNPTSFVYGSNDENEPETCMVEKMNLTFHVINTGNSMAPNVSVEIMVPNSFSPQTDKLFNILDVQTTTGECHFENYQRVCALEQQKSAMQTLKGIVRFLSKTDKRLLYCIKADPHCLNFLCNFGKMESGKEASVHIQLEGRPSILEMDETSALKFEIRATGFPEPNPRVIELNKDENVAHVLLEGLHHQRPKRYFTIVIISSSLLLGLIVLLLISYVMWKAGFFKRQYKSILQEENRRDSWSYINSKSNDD

α4S988D (human) = target: T2, α4S988D (human) (UniProt P13612); assay: as above
T2 sequence (chain, biotin (cell surface molecules labelled with NHS-LC-Biotin)): T1 sequence (chain, biotin (cell surface molecules labelled with NHS-LC-Biotin)) with S988D

## paxillin (endogenous in PC12 cells) (from UniProt Q66H76 1-586)
[1]
  binding: binds
α4S988D (human)
  binding: no binding
